Reference: patent publication US20240197706A1, “METHODS OF IMPROVING THE PHARMACOKINETICS OF MIGALASTAT” (Amicus Therapeutics, Inc., priority 2022, published 2024)
At least one read-out could not be matched to a standard name with certainty.

Assay: AT1001-045 study: plasma migalastat bioavailability of 150 mg migalastat HCl capsule with caffeine and sweetener beverages relative to water
Type: in vivo, human (healthy subjects)
Conditions: with natural (sucrose) and artificial (aspartame or acesulfame K) sweeteners
Protocol: The example describes the AT1001-045 study, which was an open-label study of the bioavailability, safety and tolerability of migalastat in combination with caffeine and sweeteners.
The primary objective was to evaluate plasma migalastat bioavailability of the 150 mg migalastat HCl capsule in a caffeinated beverage, a sucrose beverage, a combination caffeinated and sucrose beverage, an aspartame artificial sweetener beverage, and an acesulfame potassium artificial sweetener beverage relative to water in healthy subjects.
The primary endpoints were ANOVA comparisons of interest between each test treatment and reference treatment for Cmax, AUC0-t and AUC0-∞. The comparisons of interest were point estimate ratios and lower/upper 90% confidence intervals.
This was a single-center, single dose, randomized, open-label, 6-way crossover study. Each subject received a single oral dose of migalastat HCl 150 mg for each of 6 periods.
In randomized sequence, each subject received a 150 mg migalastat HCl capsule with a caffeinated beverage, a sucrose drink, a combination caffeinated and sucrose beverage, an aspartame artificial sweetener drink, an acesulfame potassium artificial sweetener drink, or water.
All study treatments were administered in the fasted condition (overnight+4 hours post-dose). […]

## OC[C@H]1NC[C@H](O)[C@@H](O)[C@H]1O [migalastat, (2R,3S,4R,5S)-2-(hydroxymethyl) piperdine-3,4,5-triol]
  bioavailability compared to water: did not appreciably differ
